# Measured values from PubChem BioAssay AID1347423 (Functional Genomics Laboratory (NCATS/FGL), 2020).
# In all, about 52,000 sequences went through this assay and about 210 (0.4%) were called active.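 Rule for the calls: active = gene whose silencing raises cell survival under the drug, median off-target-corrected z-score across its silencing RNAs 2 or more; inactive = the rest.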 The list shows a part of the results.
# Assay: Resistance to Poly (ADP-Ribose) Polymerase inhibitor: Gene Identification via Genome-wide siRNA Screen
# Details: mouse BRCA2 R2336H ES cells, olaparib, CellTiter-Glo viability; active compounds read high
# Description: The role of Poly (ADP-Ribose) Polymerase (PARP) proteins in DNA repair has been elegantly utilized for the synthetic lethality-based treatment of BRCA-deficient tumors by PARP inhibitors. PARP inhibitors are now being used for treatment of BRCA-deficient breast and ovarian cancers. […] While several mechanisms of drug resistance have been identified, majority of these tumors develop drug resistance due to unknown causes. To identified novel regulators of chemo-resistance in BRCA2-mutated cells, we performed a genome wide siRNA library screen. We have found ES cells expressing a hypomorphic allele of BRCA2 to be hypersensitive to PAPP inhibitors (such as olaparib). We used ES cells expressing a mutant allele of BRCA2 that has a single amino acid substitution at position 2336 (arginine to histidine, R2336H). The screen was conducted using an Ambion (Thermo) Silencer Mouse Genome siRNA collection. The library targets 17,575 mouse genes with 3 siRNAs per gene. TET2 (E130014J05Rik) was identified as a top candidate.
# Transfections were performed in 384 well plates (Corning 3707). Plates were coated with 0.1% gelatin in H2O overnight at ambient temperature. Gelatin solution was aspirated (BioTek EL406) and siRNAs were printed using a Bravo VPrep liquid handler integrated within a BioCel automation platform (Agilent). Cell viability was measured using CellTiter Glo (Promega). For transfections, […] of serum free media containing Lipofectamine RNAiMax […] was added to wells containing siRNA (0.8pmol). Lipid and siRNA were allowed to complex for 45 min at ambient temperature before addition of 1000 cells in DMEM, 30% FBS to yield final transfection mixtures containing 20 nM siRNA in DMEM, 15% FBS. PARPi (olaparib, AZD2281) was added 48 h post-transfection (500 nM) and viability (CellTiter Glo, Promega) was assayed 72 h later on a PerkinElmer Envision 2104 Multilabel plate reader. Ambion Silencer Select Negative Control #2 was incorporated on all screening plates (16 wells) and the median negative control value on each plate was used for normalization. An siRNA targeting Trp53 was used as a positive control. This control yielded a median protective effect of ~1.9 fold versus negative control throughout the screen. The median absolute deviation (MAD) based z-score was calculated for each siRNA. Genes were then ranked by taking the median value for all siRNAs tested against a given gene. Scores were also adjusted for seed-based off-target effects to help deprioritize likely false positives.
row,Sequence,z-score
1,CCAUAUGAAACUUAUAGCCTT against Nmi,inactive: 1.53
2,GCAAGGUGAUCACUCUCUCTT against Olfr187,inactive: 0.249
3,GCCUUGAUAAUUUUGUAAGTT against A630002K24,inactive: 0.276
4,GGAAAAAAGGAACAAAUGCTT against Pde5a,inactive: 1.05
5,CCAACUAUAACUCAGUCACTT against Ebf1,inactive: 0.374
6,GGAAGAGAAGGAGAAUGAATT against 4930424G05Rik,inactive: -0.0244
7,CCUUAAGGAAUGCCAGCAATT against 5930403N24Rik,inactive: -1.01
8,GGAAGAGCUGCUGAAAGAGTT against Tekt2,inactive: 1.32
9,GGAUAGCUAUGAACGUAGCTT against AI595366,inactive: 0.706
10,GGAUAGAAAAUCUGUGUUUTT against Rnf33,inactive: 0.507
11,CCUACUACCAGGAUGAACATT against Men1,inactive: 0.8
12,GGAAGGAGUAUAUUAAUGCTT against Stx18,inactive: 0.697
13,GUUUUGUUUCAGAGCACAATT against Olfr898,inactive: 1.12
14,GCCAGACUAAGCUUAAGACTT against Clca2,inactive: 0.778
15,GGUCAAAUAAAACAGAAGATT against Denr,inactive: 0.33
16,CGUGGAGAUCAUCCACUCATT against 2610204M08Rik,inactive: -1.96
17,GGUAAAAGCGAUUUGGACUTT against Gsc,inactive: 0.129
18,GGUUAACGAGCACAUUACCTT against Lmod2,inactive: -1.11
19,GGCCAUCAGUAUCAGCAAATT against Hip1r,inactive: 2.86
20,GCGAUACAUAUGUGAGUUUTT against Clecsf1,inactive: 0.0491
21,GCUGGAGACGUAUUUGUCCTT against Olfr294,inactive: 0.773
22,CCGGAAAUAAAGGCGGAGUTT against 2410026K10Rik,inactive: 1

row,Sequence,z-score
1,GCCUCAUGUACGGACACAATT against Mpp4,inactive: 0.0646
2,GGAAAUACCCUGAUAGCCATT against 9430077C05Rik,inactive: -1.23
3,GGGUAUCAUGGGAAACAGATT against Atp12a,inactive: -0.65
4,GGUUCCAUUCCCUCACAAUTT against Bcl9,inactive: 0.402
5,GGGAAAUCAAGAUCAUUUCTT against Olfr1294,inactive: 1.18
6,GGAGUGUUAAGAUUUGGAATT against Chpt1,inactive: 0.769
7,GCUUUUUAUAUGUGCGCAGTT against 6430544H17Rik,inactive: 3.1
8,GGUGUGGACUGUCAUCUCUTT against Olfr139,inactive: 0.226
9,GGGUUUCUGACACAUUUCUTT against 6720456H20Rik,inactive: -0.988
10,GCCACCUCAAUGAAAGGAGTT against Slc23a1,inactive: 0.609
11,GGAAAUCAGACUGCUCAAGTT against Nek3,inactive: -1.35
12,GGACAGGUGUCGAUCAAACTT against Suhw3,inactive: 0.897
13,CCAGAUCAGAUCCAGUACATT against Gja7,inactive: 0.564
14,GGGAUAGAGAAGAAGAAAATT against Dguok,inactive: 0.0563
15,GGCAGAGGUUGAAAGACUUTT against 6720467C03Rik,inactive: 0.232
16,GGCGAUGUGAAAAUCUUAATT against Xpnpep2,inactive: -0.52
17,GGAGCAUGAUCCUUCAUAATT against 4930511I11Rik,inactive: -2.63
18,GCUAUUCCCAUGACGUGUUTT against Gab1,inactive: -0.752
19,GGUUUUUGAGCCAUAUCCATT against 4632404H22Rik,inactive: 0.625
20,GGAAGAUGUGAAAUUGCUUTT against 5830468K18Rik,inactive: 0.526
21,GGUUGAAGUGGUUUGUCAUTT against 5630401J11Rik,inactive: 1.1
22,GCAGACAGCUUCUCACUAUTT against 4930511J11Rik,inactive: -1.23

row,Sequence,z-score
1,GUGUCAACCUAAGCUUGGCTT against Tlx3,inactive: -0.341
2,GGGAAGGGAGACAAGCAAATT against Slc2a10,inactive: -0.171
3,GGACGUAUAUCCUUUUAUGTT against 5430416O09Rik,inactive: 1.76
4,CCCGAAGAGCAAAAAAGAUTT against 1110004F10Rik,inactive: -0.637
5,CCAUCAGUAUUCACAACAATT against Usp42,inactive: -0.0551
6,GGUAACAUCUAUAUAUCACTT against Rb1,inactive: 1.66
7,GGCCAAGAUUAAGUUCUUGTT against Il12rb1,inactive: -0.628
8,ACAAGAUUGGGAUCAUCUATT against Rpl23a,inactive: -2.14
9,GGUUUUGUACAAAAGGUCCTT against Ube2e2,inactive: 1.1
10,GCCCAAUCACACCAAGACATT against Doc2b,inactive: 0.68
11,GGCUGUGUCAUCACCAUCUTT against Bach,inactive: -0.217
12,UAGAUGCAUGUUCCUCCUCTT against Olfr1158,inactive: -1.14
13,GCACAACGGUUCGUUGUUATT against 4933427E11Rik,inactive: 0.543
14,GCAUAUUGUGAUAUCAGUGTT against Siglec5,inactive: 0.00668
15,CCUUCAAGUACUUUCUCCGTT against 6720485C15Rik,inactive: 1.43
16,GCACUUAUUUAGAAGACUGTT against Commd3,inactive: -0.13
17,GGCUAUCUCCAAUUUCAACTT against Tscot,inactive: 0.0251
18,GGAUUCCUGUUAAAAGUCUTT against Oazin,inactive: -0.781
19,GGUUUGAAAUAUUGUGGAUTT against 4933411G11,inactive: 0.0173
20,GCCAGAGUCAUCUACUUUUTT against 4632413C14Rik,inactive: 0.0748
21,CCUUGAACAUAUAUGUCAUTT against Fem1a,inactive: 2.51
22,GGACUAAUGGUGUUCACUGTT against 1810048J11Rik,inactive: -1.46

# Already shown: an excerpt of the list.
row,Sequence,z-score
4,CCCGAAGAGCAAAAAAGAUTT against 1110004F10Rik,inactive: -0.637
5,CCAUCAGUAUUCACAACAATT against Usp42,inactive: -0.0551
6,GGUAACAUCUAUAUAUCACTT against Rb1,inactive: 1.66
7,GGCCAAGAUUAAGUUCUUGTT against Il12rb1,inactive: -0.628
8,ACAAGAUUGGGAUCAUCUATT against Rpl23a,inactive: -2.14
